Out of some 1,800 compounds screened, fewer than 10 were called active.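 Rule for the calls: active = inhibition of granule release above a set limit; inactive = the rest.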 The list shows a part of the results.
Assay: LAMP-1 surface externalization blockers in TALL-104 cells – cell-based, flow cytometry, validation set (AID 651664)
Conditions: TALL-104 LAMP-1 externalization, at 15.2 µM, stronger effect = higher value, stimulated with thapsigargin and PMA

inhibition, inactive:
CCOC(=O)CNC(=O)c1sc2nc(C)cc(C)c2c1N -1.8%
COc1ccc(N2CCN(C(=O)CN(c3ccccc3)S(C)(=O)=O)CC2)cc1 0.6%
O=c1cc(-c2ccc(F)cc2)oc2ccccc12 -1.4%
CCOC(=O)CNC(=O)c1ccccc1 0.6%
Cc1ccc(-c2csc(C(C#N)=C3CCCC3)n2)cc1 -2.1%
Cc1oc(/C=N/NC(=O)CN(c2ccccc2Br)S(C)(=O)=O)cc1Br -0.6%
O=c1[nH]c2ccc(Cl)cc2c(-c2ccccc2)c1SC(=S)N1CCOCC1 2.4%
CCOC(=O)N1CCC(NC(=O)CCC(=O)N2CCOc3ccc(C)cc32)CC1 -0.5%
COc1cc(CNCCN2CCOCC2)ccc1OCc1ccc(Cl)cc1Cl 3.4%
O=C(O)CSc1ncnc2c1oc1ccccc12 1.1%
CCSc1nnc(NC(=O)NC(CC)(C(F)(F)F)C(F)(F)F)s1 6.9%
Oc1ccccc1CNc1ccc(Br)cn1 -2.1%
COc1cccc(N2CCN(CC(=O)c3c[nH]c4ccc(OC)cc34)CC2C)c1 (centres undefined) -2.4%
Cc1cc(-n2[nH]c(C)c(C)c2=O)nc(-c2ccccc2O)n1 2.8%
Nc1nc(CSc2nc3ccccc3s2)nc(N2CCCCC2)n1 3.2%
COc1cccc2c(=O)c(C/C=C(/C)Cl)c(C)[nH]c12 1.9%
Cc1ccc(OCCN2CCN(C(=O)CCC(=O)Nc3nnc(C(C)C)s3)CC2)cc1 1.7%
O=C(c1ccccc1)N1CCC(c2nc(-c3ccc(S(=O)(=O)N4CCOCC4)cc3)no2)CC1 0.2%
O=C(Cc1ccccc1)N/N=C/c1cccs1 2.6%
CNC(=S)N1CCN(c2c(F)cc3c(=O)c(C(=O)O)cn(C4CC4)c3c2OC)CC1C (centres undefined) 1%
CCOC(=O)N1CCN(S(=O)(=O)c2cc(Br)cnc2N)CC1 1.8%
CCCCN(CCCC)C(=S)N/N=C/c1c(C)[nH]n(-c2ccccc2)c1=O -0.4%
CS(=O)(=O)NCC(c1cccnc1)N1CCN(c2ccc(F)cc2)CC1 (centres undefined) 0.4%
c1ccc(CSc2ncnc3c2sc2nc(N4CCOCC4)c4c(c23)CCCC4)cc1 -3.3%
CCCCOc1ccccc1P(=O)(O)CP(=O)(c1ccccc1)c1ccccc1 -3.4%
COc1ccc(CN2CCOCC2)cc1 1.5%
Cc1ccc(CNC(=O)c2cccc(S(C)(=O)=O)c2)cc1 -2.2%
CCOC(=O)c1ccc(Oc2nc(SC)nc(N(C)C)n2)cc1 1.7%
O=C1CC(c2ccco2)CC(O)=C1C=NCCN1CCN(C2CC(=O)N(c3ccccc3)C2=O)CC1 (centres undefined) -2.2%
O=C(CCn1cccc1)NC1CCCc2ccccc21 (centres undefined) 1.9%
COc1ccc(-c2nc(NC(=O)Cn3ccc(C(F)(F)F)n3)sc2C)cc1 1.8%
Cc1cc(C)c(S(=O)(=O)NCc2cn3c(C)csc3n2)c(C)c1 -4.5%
CCn1c(C)nc2c1C(=O)c1ccccc1C2=O -1.5%
O=C(O)CN(Cc1ccco1)S(=O)(=O)c1ccccc1 -2.6%
Cc1cc(=O)[nH]c(-n2nc(C)cc2C)n1 -3.8%
CSc1nc(Oc2ccccc2)c2sccc2n1 -0.5%
COc1cccc(C(=O)Nc2nnc(-c3cccs3)s2)c1 -0.6%
COc1cc(C2C(C(C)=O)=C(O)C(=O)N2CCN(C)C)ccc1O (centres undefined) -3.3%
COc1ccc(N/N=C(/N=Nc2nc(C)cc(=O)[nH]2)c2ccccc2)cc1 3.7%
COc1cc2c(C(=O)N3CCN(c4ccccc4C)CC3)c(C)oc2cc1Br 2.5%
Cc1cc(/C=N/NC(=O)c2cccc([N+](=O)[O-])c2)c(C)n1-c1ccc(Cl)cc1Cl -5.4%
O=C(Nc1ccc2oc(-c3cccnc3)nc2c1)c1ccco1 2%
CCC(c1nnnn1CCOC)N(Cc1ccc(C)cc1)Cc1cc2cc(OC)ccc2[nH]c1=O (centres undefined) -1.1%
Cc1ccc(NC(=O)CN2C(=O)N/C(=C/c3ccco3)C2=O)cc1 1.7%
COC(=O)c1cc(OC)c(OCc2cc(C(=O)OC)oc2C)c(OC)c1 2.7%
OCCSc1nncn1/N=C/c1c[nH]c2ccccc12 -3.4%
CC(=O)N1CCN(S(=O)(=O)c2cccc(C(=O)NC3CCCc4ccccc43)c2)CC1 (centres undefined) 0%
CC(CN1CCCCC1)OC(=O)c1ccc(Cl)cc1Cl (centres undefined) -2.5%
Cc1cc(-c2csc(N)n2)c(C)n1CCC(C)C -0.5%
O=c1oc(-c2ccccc2NS(=O)(=O)c2ccccc2)nc2ccccc12 0.1%
CC1=C(C(=O)OC(C)C)C(c2ccco2)NC(=O)N1 (centres undefined) -1.9%
Cc1ccc(C2c3sc(=O)[nH]c3SC3C(=O)NC(=O)C32)cc1 (centres undefined) 0.7%
Nc1cc2ccccc2oc1=O 4.2%
CCNC(=O)NC(=O)C(C)Sc1nc2ccccc2n1CC(C)C (centres undefined) 0.8%
CN(C)/C=C1\N=C(c2cccs2)OC1=O -1.9%
CCOC(=O)C(CC)Sc1nc2c(c(=O)[nH]c(=O)n2C)n1CCc1ccccc1 (centres undefined) -2.9%
CC1(C)CC(=O)C2=C(C1)OC(/N=C/N1CCOCC1)=C(C#N)C2c1ccccc1 (centres undefined) -0.6%
N#CC1=C(S)N=C(N)C(c2nc(-c3ccccc3)cs2)C12CCCCC2 (centres undefined) -0.1%
O=C(Nc1nc(-c2cccc([N+](=O)[O-])c2)cs1)C(c1ccccc1)c1ccccc1 -0.3%
Cc1ccccc1-n1c(SCc2c(C)noc2C)nnc1-c1cccnc1 0.4%
Cc1ccc(NCc2cccnc2)cc1 3.2%
CCN1C(=O)/C(=C\N2CCN(c3ccccc3)CC2)SC1=S 2.5%
COC(=O)Cc1c(C)c2ccc(O)c(CN3CCCC(C)C3)c2oc1=O (centres undefined) -1.8%
C=C(Br)Cn1c(CCCC)nc2ccccc21 6.1%
Cc1cc(CN(C)C)c(O)c(C2(C)CCCCC2)c1 1%
Cc1ccc(SC(C)C(=O)NCc2cccnc2)cc1 (centres undefined) 23%
CCOc1ccc(Br)cc1C1C(C(=O)OC)=C(N)Oc2cc(N(C)C)ccc21 (centres undefined) 4.1%
CCCc1nnc(NC(=O)c2cc3ccccc3oc2=O)s1 0.8%
Cc1ccc(CNC(=O)CCNC(=O)c2ccco2)cc1 -3.1%
COc1cc(NC(=O)Nc2ccccc2)c(OC)cc1NC(=O)CN1CCCCC1 -0.7%
CCOC(=O)C1(P(=O)(c2ccc(Cl)cc2)c2ccc(Cl)cc2)CCC1 -0.1%
CC(C(=O)NCc1cccs1)n1cccc1 (centres undefined) -0.5%
CN(C)c1ncnc2c1NC1=C(S2)C(=NCCCC(=O)O)CC(C)(C)C1 0.8%
CCOc1ccc(-c2nc(CSCC(=O)NCc3ccco3)c(C)o2)cc1 1.6%
Cc1ccc2cc(COC(=O)C3CCCO3)c(=O)[nH]c2c1 (centres undefined) -2.9%
CNC(=O)c1sccc1S(=O)(=O)Cc1c(Cl)cccc1Cl -1%
CCOc1ccc(CNc2ccc(N3CCOCC3)c(C(=O)O)c2)cc1 1.2%
Cc1ccc(NC(=O)c2cc(S(=O)(=O)Nc3ccc(C)cc3)cs2)cc1 0.6%
CC1(C)CC(=O)c2cc(C(=O)NCc3ccco3)c(=O)n(-c3ccccc3)c2C1 3.8%
COCCN(C(=O)CN1CCCc2ccccc21)c1c(N)n(Cc2ccccc2)c(=O)[nH]c1=O 6.7%
COc1cc(OC)c(NC(=S)Nc2cccc(C(C)=O)c2)cc1Cl -3.9%
CCn1c2ccccc2c2cc(NC(=O)CSc3nnnn3-c3ccccc3)ccc21 4.2%
C/C=C/c1ccc(OCCCNCC(C)O)c(OC)c1 (centres undefined) -1.2%
Cc1cc(COc2ccccc2OCCN2CCN(C)CC2)no1 -0.2%
O=C(Nc1cccc(-c2cnc3ccccc3n2)c1)c1ccco1 -1.5%
CN(Cc1nc(-c2cccnc2)no1)S(=O)(=O)c1ccc(Br)cc1 6.2%
CN1CC(=O)NC1=NC(=O)c1ccc(Cl)c(S(=O)(=O)N2CCCCCC2)c1 -1.1%
Cc1c(C(=O)N2CCCCC2)nnn1-c1nonc1N -0.7%
CC1CC(C)CN(CC(=O)N2CCCc3c2c(=O)oc2ccc(OCc4ccccc4)cc32)C1 (centres undefined) -3%
COc1ccccc1Cn1nnc2c(=O)[nH]c(C3CCN(C(=O)c4ccc(F)cc4)CC3)nc21 -0.3%
COc1cccc(Nc2ncccc2C(=O)NCc2ccccc2)c1 2.3%
Clc1ccc(-c2nnnn2-c2ccc(Cl)c(Cl)c2)cc1Cl -0.4%
CCCn1c(NC(=O)c2ccccc2)nc2ccccc21 -3.6%
O=C1OC2CCC1(c1ccccc1)C2 (centres undefined) -2.8%
COc1ccc(C2NC(=O)c3sc(=S)n(-c4ccccc4)c3N2)cc1 (centres undefined) 0.2%
Cn1nc(-c2ccccc2)c(C(=O)Nc2ccc(Cl)cc2)c1Cl 3%
COc1ccc(-c2noc(CN(C(=O)c3ccc(OC(C)=O)cc3)C(C)C)n2)cc1OC -0.4%
CC(C)(C)Cc1nnc(NS(=O)(=O)Cc2ccccc2)s1 -1.1%
Cc1ccccc1S(=O)(=O)Cc1ccc(C(=O)N2CCN(c3ncccn3)CC2)o1 -1.8%

Reprinted at random: three compounds from above, in no set order.
inhibition, inactive:
Cc1ccc(CNC(=O)c2cccc(S(C)(=O)=O)c2)cc1 -2.2%
COc1cc(OC)c(NC(=S)Nc2cccc(C(C)=O)c2)cc1Cl -3.9%
COc1cc2c(C(=O)N3CCN(c4ccccc4C)CC3)c(C)oc2cc1Br 2.5%

An excerpt of the results above, as a working copy:
inhibition, inactive:
Cc1ccc2cc(COC(=O)C3CCCO3)c(=O)[nH]c2c1 (centres undefined) -2.9%
CNC(=O)c1sccc1S(=O)(=O)Cc1c(Cl)cccc1Cl -1%
